Measured values reported in US11352394B2, “Cyclic cell penetrating peptides comprising beta-hairpin motifs and methods of making and using thereof” (Ohio State Innovation Foundation, priority 2016, dated 2022).
For some of these results: Part of at least one peptide drawing is inferred or uncertain, most often the ends. For some of these results: At least one structure is not confirmed: it was looked up by name or label, or the drawing left a doubt. Square brackets hold non-standard residues; d marks the D form. Side chains are listed from the residue outwards. Peptide text beside a SMILES is read from it. * marks the point of attachment. X2 = NC(=O)[C@H](CCCCNC(=O)c1ccc2c(c1)C(=O)OC21c2ccc(O)cc2Oc2cc(O)ccc21)N*; Pmp = N[C@@H](Cc1ccc(CP(=O)(O)O)cc1)C(=O)O; pY = N[C@@H](Cc1ccc(OP(=O)(O)O)cc1)C(=O)O; 2Nal = N[C@@H](Cc1ccc2ccccc2c1)C(=O)O; βAla = NCCC(=O)O

Chains of the proteins cited; added tags and fusions are not shown. Residues count along the entry.
UniProt P62993, 60-152 limits assumed: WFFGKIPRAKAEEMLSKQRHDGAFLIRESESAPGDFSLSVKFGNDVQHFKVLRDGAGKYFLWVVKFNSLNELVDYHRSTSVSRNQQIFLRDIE

Assays:
Grb2 SH2 domain [1] = target: T1, Grb2 SH2 domain (Homo sapiens, UniProt P62993); experiment: Direct binding of FAM-labeled ligand to Grb2 SH2 domain by fluorescence anisotropy; conditions: read-out: KD for Grb2 SH2 domain
Grb2 SH2 domain [2] = target: T1, Grb2 SH2 domain; experiment: FP-based competition assay with FAM-labeled reporter ligand for Grb2 SH2 domain; assay type: binding
Method: FIG. 10(a) is the structure of a Grb2 SH2 ligand. […] This ligand was used as reporter ligand in FA/FP-based competition assays to determine the binding affinities of new Grb2 SH2 domain ligands.
The binding affinity of BH23 (unlabeled) for the Grb2 SH2 domain was then determined by examining its ability to compete with the FAM-labeled ligand for binding to the Grb2 SH2 domain by fluorescence polarization (FP). […] Next, BH23 was labeled with NF at the Asn side chain through a miniPEG-Lys linker and its cytosolic entry efficiency was quantitated by treating HeLa cells with 5 μM of the labeled peptide for 2 h before flow cytometry analysis. […] BH23 was also similarly labeled at the Asn side chain with FAM and its entry into HeLa cells was examined by live-cell confocal microscopy. […] Two control peptides (BH24 and BH25) were also prepared for cellular assays. BH24 and BH25 are structurally similar to BH23, except that BH24 contained a Tyr instead of the pY residue (FIG. 11), whereas in BH25 the two hydrophobic residues critical for cellular uptake (Nal-arg) were replaced with Ala-ala (FIG. 12).

[3] = test system: Grb2/Ras signaling pathway, MDA-MB-468 breast cancer cells; experiment: Western blot of MEK and ERK1/2 phosphorylation in EGF-stimulated MDA-MB-468 cells; assay type: cell-based; conditions: peptide 2 h, EGF 50 ng/mL 10 min
Method: FIG. 13 provides western blots depicting the effect of peptides BH23, BH24, and BH25 on the Grb2/Ras signaling pathway. MDA-MB-468 cells were treated with the indicated concentrations of peptide BH23 (a) or control peptides BH24 and BH25 (b) for 2 h and stimulated with EGF (50 ng/mL) for 10 min. The cells were then lysed and the cell lysates were separated on SDS-PAGE and blotted with antibodies specific for phosphorylated and total kinases in the Ras signaling pathway. Glyceraldehyde 3-phosphate dehydrogenase (GAPDH) was used as the loading control. […] Inhibition of ERK1/2 phosphorylation was less dramatic, as expected from its further downstream position on the Grb2/Ras signaling pathway.
FIG. 14(a) is the structure of BH26. FIG. 14(b) provides western blots showing the effect of peptides BH23 and BH26 on the Grb2/Ras signaling pathway. MDA-MB-468 cells were treated with the indicated concentrations of BH23 or BH26 for 2 h and stimulated with EGF (50 ng/mL) for 10 min. The cells were then lysed and the cell lysates were separated on SDS-PAGE and blotted with antibodies specific for phosphorylated and total kinases in the Ras signaling pathway.
BH23 and BH24 were tested for their ability to inhibit the Grb2/Ras signaling pathways, by monitoring the phosphorylation of MEK and ERK1/2 kinases downstream of Ras.

| Structure (SMILES) | Kd (Grb2 SH2 domain [1]) | Binding to Grb2 SH2 domain, fold less potent than BH23 (Grb2 SH2 domain [2]) | Phosphorylation of ERK1/2 [3] | Phosphorylation of MEK [3] |
| --- | --- | --- | --- | --- |
| CC(C)[C@@H]1NC(=O)[C@H](Cc2ccc(OP(=O)(O)O)cc2)NC(=O)[C@H](C)NC(=O)[C@H](C)NC(=O)[C@H](CCC(=O)NCCC(=O)N[C@@H](CCCCNC(=O)c2ccc3c(c2)C(=O)OC32c3ccc(O)cc3Oc3cc(O)ccc32)C(N)=O)NC(=O)[C@H](Cc2ccccc2)NC(=O)[C@H](Cc2ccccc2)NC(=O)[C@H](CC(N)=O)NC1=O [cyclo(AApYVNFFQ)-β-Ala-K(FAM)] (cyclo(AA[pY]VNFFE([βAla-X2]))) | 92 nM |  |  |  |
| CC(C)[C@@H]1NC(=O)[C@H](Cc2ccc(CP(=O)(O)O)cc2)NC(=O)[C@H](CCCNC(=N)N)NC(=O)[C@H](CCCNC(=N)N)NC(=O)[C@@H]2CCCN2C(=O)[C@H]2CCCN2C(=O)[C@@H](CCCNC(=N)N)NC(=O)[C@H](Cc2ccc3ccccc3c2)NC(=O)[C@H](Cc2ccccc2)NC(=O)[C@H](CC(N)=O)NC1=O [BH26] (cyclo(F[2Nal][dR][dP]PRR[Pmp]VN); ring closure inferred) |  | ~3 fold | dose-dependently inhibited | dose-dependently inhibited |
